Results reported in publication PMC11352514.
These are yes or no findings as the source states them, for the method shown. In cells and extracts the contact can be indirect. Some results given as binding are weak or reduced against the parent protein; the word gives no strength. Tags and fused reporters may be left off the sequences shown.

Molecular target: T1, Myc-mouse Cmtm3 (CKLF-like MARVEL transmembrane domain-containing 3) (mouse) (UniProt Q99LJ5)
T1 sequence: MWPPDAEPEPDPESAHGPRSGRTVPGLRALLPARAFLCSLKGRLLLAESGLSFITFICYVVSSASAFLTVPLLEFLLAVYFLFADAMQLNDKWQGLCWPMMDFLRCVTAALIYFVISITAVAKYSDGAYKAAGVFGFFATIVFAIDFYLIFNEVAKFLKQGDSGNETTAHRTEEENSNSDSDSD
Experiment: co-IP; HEK 293 cells co-transfected with HA-p53 and Myc-Cmtm3, 48 h; whole-cell lysates incubated with anti-Myc overnight at 4 °C, protein A-Sepharose beads 2 h at 4 °C; western blot with anti-HA; IgG antibody as control

binding: binds
Substance: HA-human p53 (from UniProt P04637 1-393)
